# Source: paper PMC8311651, “Controlling Intramolecular Interactions in the Design of Selective, High-Affinity Ligands for the CREBBP Bromodomain” (Journal of Medicinal Chemistry, 2021)
# Chains of the proteins cited; added tags and fusions are not shown. Residues count along the entry.
# UniProt Q92793, residues 1081-1197: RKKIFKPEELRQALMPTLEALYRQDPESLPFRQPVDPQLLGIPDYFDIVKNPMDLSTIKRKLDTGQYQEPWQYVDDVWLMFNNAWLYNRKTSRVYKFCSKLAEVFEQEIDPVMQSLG
# Results are given in words; binding and its absence hold for the method and conditions named.
# Target: CREBBP bromodomain (Homo sapiens, UniProt Q92793)
# Assay: SEC; CREBBP bromodomain run in the presence or absence of compound 2 (50 μM); test for dimerisation in solution; both purified
substance,measurement,value
CREBBP bromodomain (from UniProt Q92793 1081-1197) (domain or fragment),binding,no binding
